The values below are quoted from earlier work in patent US6829540B1, “Drug discovery using multiple membrane mimetic affinities” (priority 1997, dated 2004).

The conditions of the data set: cited from earlier work.

Each structure is given as a SMILES string. Where two headings read alike, the source gives them in different places.

`CN1[C@@H]2C[C@@H](OC(=O)[C@H](CO)c3ccccc3)C[C@H]1[C@@H]1O[C@@H]12` [scopolamine]: the “Oral Absorption (%)” value (Table 6, low oral absorption training set) is recorded as 27% and the “Oral Absorption (%)” value (Table 9, compounds with low oral absorption) is recorded as 27%.
